Laboratory results from PubChem BioAssay AID720611 (Broad Institute, 2013).
All entries are inconclusive by the source's own rule. Clear calls are listed elsewhere.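 The calls were made as follows: active = viability loss with half-effect dose no higher than twice the top dose, at all three exposure times; inconclusive = exposure times disagree or give unclear fits; inactive = inactive at every exposure time.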

Experiment: cytotoxicity in SNB-19 cells – cell-based, CellTiter-Glo ATP luminescence, 8-48 h, dry powder, mechanism study for HRAS target identification, late-stage follow-up (AID 720611)
Details: SNB-19 viability; at 35 µM (top of the series)

| SMILES | activity change, negative = cytotoxicity |
| --- | --- |
| Cc1onc(C(=O)N2CCN(C(c3ccc(Cl)cc3)c3ccc(Cl)cc3)CC2)c1[N+](=O)[O-] | inconclusive: -42.5% |
| COC(=O)c1ccc([C@@H]2c3[nH]c4ccccc4c3C[C@@H](C(=O)OC)N2C(=O)CCl)cc1 | inconclusive: -89.7% |
